# Primary screen of a compound library

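Whole-cell assay for inhibitors of Mycobacterium tuberculosis growth, labelled Cornell in the record; the read-out is not stated. The concentration is filed as 10 mM, unlikely as a test dose, so the dose is not known. Higher means stronger inhibition (inferred from two other growth screens of the library). Size under these conditions: about 53,000 compounds, about 900 of them at 50% or above in at least one test.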

Values are the deposited “Percent Effect”, in %.
The controls that fix the scale are not given in the record; negative values are as filed.
This is an unselected part of the compounds tested.

* Cc1cn[nH]c1C1COCCN1C(=O)c1ccc2c(c1)CCCC2 (configuration not stated) | 12.45%
* Cc1noc(C(C)C)c1C(=O)NCCCN1CCCC1 | 15.5%
* CCOC(=O)c1s/c(=N\C(=O)COc2cnc(C)cc2O)[nH]c1C | 19.58%
* CSc1ccc(CNC2CCCc3c2cnn3C)cc1.Cl (configuration not stated) | -2.121%
* COc1ccc(CNCCc2ccn(-c3ccccc3)n2)cc1O | 107.6%
* Cc1nocc1C(=O)N1CCOC2(COCCN(C(C)C)C2)C1.O=C(O)C(F)(F)F (configuration not stated) | -19.18%
* CN1CCC(c2nnc3ccc(C(=O)N4CCCCC4)cn23)C1.O=C(O)C(F)(F)F (configuration not stated) | 4.531%
* Cc1nccn1CCC1CCCCN1C(=O)c1ccc(N(C)C)cc1 (configuration not stated) | 0.02744%
* Cc1ccc(OCC(=O)NCc2ccccc2F)nc1 | 14.19%
* CCO[C@H]1CO[C@@]2(CCCN(C(=O)c3ccc(OC)c(F)c3)C2)C1 | -18.19%
* O=C(Cc1cccs1)NCC1(O)CCSCC1 | -28.27%
* CCN(C)C[C@@H]1CN(Cc2cccc(O)c2)C[C@@H]1CO | 14.92%
* CCN1CC2(CCC1=O)CCN(Cc1nncn1C(C)C)CC2 | 17.07%
* Cc1nc(C)n(CC2CCCN2Cc2nnc(-c3ccco3)o2)n1 (configuration not stated) | -29.08%
* O=C(O)C(F)(F)F.[H][C@@]12CCCO[C@]1([H])[C@H](OCc1cccnc1)CN2C(=O)N1CCCC1 | 12.95%
* COCCn1c(-c2cccc(OC)c2)cnc1NC(=O)NCCC(C)C | 39.19%
* CCCC(NC(=O)c1ccc(C)cc1C)c1nnn[nH]1 (configuration not stated) | -61.32%
* CCS(=O)(=O)N1CC[C@H](OC)[C@@H]1Cc1ccncc1 | -12.4%
* Cn1cc(CN2CCCC3(COCCN(c4cccnc4)C3)C2)cn1.O=C(O)C(F)(F)F.O=C(O)C(F)(F)F (configuration not stated) | 14.79%
* O=C(O)C(F)(F)F.O=C(O)C(F)(F)F.[H][C@@]12CN(Cc3ccc(F)cc3)C[C@]1([H])OCCN2c1ccc(C)nn1 | 1.777%
* CC(C)Cc1cc(C(=O)N2CCC(Oc3cccnc3)CC2)n(C)n1 | 17.21%
* CC(O)CN1CCC(CNCc2cccc(C(N)=O)c2)CC1 (configuration not stated) | 3.11%
* CC(C)Cc1noc(CN(C)c2cc(C(C)C)nc3ccnn23)n1 | -22.24%
* CCc1nc(Cn2c(=O)n(CC)c3ccccc32)no1 | 11.25%
* Cc1c[nH]nc1C1CCN(S(=O)(=O)N(C)C)C1 (configuration not stated) | -18.95%
* Cc1cc(C(=O)N(Cc2c(C)nn(C)c2C)C(C)C)nc(C)n1 | -34.32%
* O=C(O)C(F)(F)F.[H][C@@]12CCN(Cc3nccs3)[C@]1([H])C[C@@H](C(=O)NCC1CCOCC1)O2 | 29.57%
* COc1ccc(CC2CN(C(=O)c3ocnc3C)CCO2)cc1 (configuration not stated) | -8.65%
* [H][C@@]12CCN(C(=O)C3CCOCC3)[C@]1([H])CCC(=O)N2Cc1csc(C)n1 | 13.87%
* Cc1cn[nH]c1C1COCCN1Cc1cscn1 (configuration not stated) | 48.32%
* [H][C@@]12CCN(C[C@@H]1C(=O)N1CCOCC1)[C@@H](Cn1cc(C(C)(C)O)nn1)C2 | 4.011%
* CC(NC(=O)COc1cccc[n+]1[O-])C1CC1 (configuration not stated) | 16.55%
* CCc1noc(CN(CC)Cc2cc3cc(C)ccc3[nH]c2=O)n1 | -12.46%
* CCOc1cc(C)ccc1NC(=O)N(C)Cc1cnn(C)c1 | 8.846%
* CC(C)Nc1nc2c(s1)C(=O)CN(CC1CC1)C2 | -4.506%
* CC(c1nc(C2CC2)no1)N(C)Cc1cccc(F)c1 (configuration not stated) | -2.602%
* Fc1cccc(CN2CCC3(CCN3c3ncccn3)C2)c1.O=C(O)C(F)(F)F (configuration not stated) | -12.26%
* Cc1cnn(-c2cccc(N3CCN(c4cc(C)nc(C)n4)CC3)n2)c1 | -29.16%
* CC(=O)N1CCOC(c2c(C(=O)O)sc3ccccc23)C1 (configuration not stated) | 2.707%
* O=C(O)c1ccc(S(=O)(=O)Nc2cnn(CC(F)(F)F)c2)cc1 | 41.5%
* CNC(=O)c1nc(CN2CCOC(CCCC(C)C)C2)no1 (configuration not stated) | -17.45%
* CCn1cnnc1C1CCN(C(=O)Cc2ccc(OC)c(F)c2)CC1 | 17.22%
* COc1ncccc1CN1Cc2nccn2CC(CN2CCCC2)C1 (configuration not stated) | 6.883%
* Cc1nc(CN2C(=O)COC3(CCN(C)CC3)C2C)cs1.O=C(O)C(F)(F)F (configuration not stated) | 12.99%
* Cc1cc2nc(C(C)C)cc(N3CCC(Oc4ncccn4)CC3)n2n1 | -32.05%
* Cc1cc(C)n(-c2cncc(NCCNC(=O)C(C)(C)C)n2)n1 | -7.714%
* O=C(NCc1c(F)cccc1Cl)c1cc(CN2CCCC(O)C2)on1 (configuration not stated) | 3.543%
* Cc1noc(C2CCN(C(=O)c3cccs3)CC2)n1 | -0.3019%
* Oc1cc(-c2ccsc2)nc(C2CCN(Cc3ccncc3)CC2)n1 | 7.304%
* Cc1cc(C(=O)Nc2ccc(-c3nnc(N(C)C)o3)cc2)oc1C | -36.89%
* COc1cccc(CCC2CCCN(C(=O)c3ccccn3)C2)c1 (configuration not stated) | 5.867%
* O=S(=O)(c1ccccc1)N1CCOC(Cn2ccnc2)C1 (configuration not stated) | 9.437%

For reference, 5 entries once more:

compound	effect
CNC(=O)c1nc(CN2CCOC(CCCC(C)C)C2)no1 (configuration not stated)	-17.45
CCO[C@H]1CO[C@@]2(CCCN(C(=O)c3ccc(OC)c(F)c3)C2)C1	-18.19
CCc1noc(CN(CC)Cc2cc3cc(C)ccc3[nH]c2=O)n1	-12.46
Cc1nc(CN2C(=O)COC3(CCN(C)CC3)C2C)cs1.O=C(O)C(F)(F)F (configuration not stated)	12.99
CC(c1nc(C2CC2)no1)N(C)Cc1cccc(F)c1 (configuration not stated)	-2.602

Source: ChEMBL document CHEMBL3988442, “University of Dundee, Small-Polar-MMV Screening Library” (2021).